Results from the supplement of paper PMC12067093, “Discovery and optimisation of a covalent ligand for TRIM25 and its application to targeted protein ubiquitination” (Chemical Science, 2025).
This is one part of the list.

Chains of the proteins cited; added tags and fusions are not shown. Lines headed by an entry give the natural chain unless they say otherwise; changes in a name come on top.
UniProt P42356, whole entry, looked up: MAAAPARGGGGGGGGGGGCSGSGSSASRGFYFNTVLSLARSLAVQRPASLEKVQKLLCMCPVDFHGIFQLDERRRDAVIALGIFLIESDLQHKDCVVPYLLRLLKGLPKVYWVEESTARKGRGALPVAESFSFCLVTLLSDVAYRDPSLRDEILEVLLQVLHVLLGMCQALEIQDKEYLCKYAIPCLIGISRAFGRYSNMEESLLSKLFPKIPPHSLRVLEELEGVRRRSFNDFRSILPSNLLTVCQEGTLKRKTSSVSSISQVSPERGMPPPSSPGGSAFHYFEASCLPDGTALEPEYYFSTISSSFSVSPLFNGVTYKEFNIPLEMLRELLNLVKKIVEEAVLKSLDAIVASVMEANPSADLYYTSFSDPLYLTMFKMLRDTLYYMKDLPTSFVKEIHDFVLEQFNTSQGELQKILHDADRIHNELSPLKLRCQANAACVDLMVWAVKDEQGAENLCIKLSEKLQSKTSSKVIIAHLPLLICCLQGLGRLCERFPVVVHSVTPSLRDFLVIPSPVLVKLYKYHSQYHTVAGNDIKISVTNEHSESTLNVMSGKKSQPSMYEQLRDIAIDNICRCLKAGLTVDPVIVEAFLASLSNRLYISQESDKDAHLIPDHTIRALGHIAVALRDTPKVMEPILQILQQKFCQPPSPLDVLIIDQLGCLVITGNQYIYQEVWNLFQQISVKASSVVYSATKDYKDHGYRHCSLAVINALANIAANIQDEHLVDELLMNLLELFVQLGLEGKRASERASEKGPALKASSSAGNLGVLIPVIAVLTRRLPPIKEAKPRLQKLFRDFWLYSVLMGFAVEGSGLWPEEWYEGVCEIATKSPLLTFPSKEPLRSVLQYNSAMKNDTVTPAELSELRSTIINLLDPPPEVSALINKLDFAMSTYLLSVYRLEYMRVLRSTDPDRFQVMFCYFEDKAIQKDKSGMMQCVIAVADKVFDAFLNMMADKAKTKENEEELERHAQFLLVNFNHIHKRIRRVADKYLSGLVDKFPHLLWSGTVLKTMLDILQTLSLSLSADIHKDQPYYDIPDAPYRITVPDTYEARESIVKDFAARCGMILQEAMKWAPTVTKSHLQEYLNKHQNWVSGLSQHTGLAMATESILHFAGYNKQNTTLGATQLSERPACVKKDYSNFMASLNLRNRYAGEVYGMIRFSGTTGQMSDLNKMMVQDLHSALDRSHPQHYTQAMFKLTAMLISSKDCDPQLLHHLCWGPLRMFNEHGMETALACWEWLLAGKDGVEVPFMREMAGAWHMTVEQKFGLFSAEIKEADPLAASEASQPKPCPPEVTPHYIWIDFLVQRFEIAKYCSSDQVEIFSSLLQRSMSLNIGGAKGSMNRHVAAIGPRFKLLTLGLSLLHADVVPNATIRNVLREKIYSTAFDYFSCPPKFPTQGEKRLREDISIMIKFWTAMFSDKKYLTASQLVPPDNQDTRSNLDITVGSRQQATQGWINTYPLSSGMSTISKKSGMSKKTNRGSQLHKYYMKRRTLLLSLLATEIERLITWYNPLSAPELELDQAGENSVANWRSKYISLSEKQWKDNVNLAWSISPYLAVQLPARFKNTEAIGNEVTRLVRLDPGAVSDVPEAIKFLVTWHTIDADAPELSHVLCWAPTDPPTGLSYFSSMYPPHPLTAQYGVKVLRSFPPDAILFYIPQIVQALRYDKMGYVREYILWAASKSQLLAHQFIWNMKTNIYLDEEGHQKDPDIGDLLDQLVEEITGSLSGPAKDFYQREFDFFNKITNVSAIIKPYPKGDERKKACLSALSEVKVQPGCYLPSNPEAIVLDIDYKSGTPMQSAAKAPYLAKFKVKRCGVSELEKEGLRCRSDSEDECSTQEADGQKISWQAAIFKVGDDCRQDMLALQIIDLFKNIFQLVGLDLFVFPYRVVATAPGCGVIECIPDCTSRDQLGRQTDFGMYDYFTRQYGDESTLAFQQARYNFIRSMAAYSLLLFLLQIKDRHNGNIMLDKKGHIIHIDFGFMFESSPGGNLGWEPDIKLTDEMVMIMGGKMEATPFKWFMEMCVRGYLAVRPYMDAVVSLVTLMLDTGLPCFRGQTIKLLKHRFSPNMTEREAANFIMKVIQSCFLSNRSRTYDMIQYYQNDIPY
UniProt P52209: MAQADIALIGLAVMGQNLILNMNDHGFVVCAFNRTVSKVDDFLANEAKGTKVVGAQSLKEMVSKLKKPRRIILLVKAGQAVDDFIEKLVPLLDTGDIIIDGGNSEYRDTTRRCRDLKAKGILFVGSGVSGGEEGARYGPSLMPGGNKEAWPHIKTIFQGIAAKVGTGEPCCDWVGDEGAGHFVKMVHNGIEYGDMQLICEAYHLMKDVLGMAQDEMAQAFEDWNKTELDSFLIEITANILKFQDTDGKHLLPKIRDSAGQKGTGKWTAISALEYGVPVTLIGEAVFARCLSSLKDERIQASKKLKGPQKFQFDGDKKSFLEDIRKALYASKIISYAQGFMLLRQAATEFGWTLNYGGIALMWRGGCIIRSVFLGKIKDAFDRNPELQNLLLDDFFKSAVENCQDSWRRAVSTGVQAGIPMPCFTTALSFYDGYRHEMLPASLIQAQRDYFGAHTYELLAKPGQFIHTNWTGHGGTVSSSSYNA
UniProt Q9NRX4: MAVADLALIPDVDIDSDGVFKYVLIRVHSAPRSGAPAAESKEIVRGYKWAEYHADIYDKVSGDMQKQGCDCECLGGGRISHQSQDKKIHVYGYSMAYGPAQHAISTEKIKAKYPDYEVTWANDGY
UniProt O43175: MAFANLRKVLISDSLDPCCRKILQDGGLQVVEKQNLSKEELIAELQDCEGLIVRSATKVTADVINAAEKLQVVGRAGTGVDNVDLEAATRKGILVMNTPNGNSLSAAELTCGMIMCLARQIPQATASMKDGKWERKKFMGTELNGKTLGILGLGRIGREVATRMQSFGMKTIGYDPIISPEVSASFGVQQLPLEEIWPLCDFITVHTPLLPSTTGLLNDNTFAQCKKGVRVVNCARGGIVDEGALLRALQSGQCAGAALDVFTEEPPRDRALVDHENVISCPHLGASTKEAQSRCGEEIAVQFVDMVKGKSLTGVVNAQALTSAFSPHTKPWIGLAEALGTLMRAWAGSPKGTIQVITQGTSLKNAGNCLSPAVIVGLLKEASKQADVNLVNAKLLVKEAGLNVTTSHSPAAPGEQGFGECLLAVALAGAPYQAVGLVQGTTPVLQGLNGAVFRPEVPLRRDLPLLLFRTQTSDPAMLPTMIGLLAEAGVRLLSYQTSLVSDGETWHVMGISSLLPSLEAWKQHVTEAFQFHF
UniProt Q16875: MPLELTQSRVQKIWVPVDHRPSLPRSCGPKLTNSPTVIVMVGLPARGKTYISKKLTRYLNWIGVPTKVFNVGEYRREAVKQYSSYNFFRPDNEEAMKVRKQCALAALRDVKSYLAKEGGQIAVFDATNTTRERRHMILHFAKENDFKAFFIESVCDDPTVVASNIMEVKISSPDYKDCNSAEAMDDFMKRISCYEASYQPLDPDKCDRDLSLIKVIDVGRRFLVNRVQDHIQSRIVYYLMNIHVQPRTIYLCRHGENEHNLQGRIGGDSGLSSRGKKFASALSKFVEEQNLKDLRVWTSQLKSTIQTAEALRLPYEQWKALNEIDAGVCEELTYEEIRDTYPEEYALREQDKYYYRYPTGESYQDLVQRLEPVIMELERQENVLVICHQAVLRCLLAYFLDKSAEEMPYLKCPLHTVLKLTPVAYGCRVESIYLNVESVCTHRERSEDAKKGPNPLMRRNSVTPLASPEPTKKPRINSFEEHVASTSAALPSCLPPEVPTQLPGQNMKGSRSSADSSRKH
UniProt O15067: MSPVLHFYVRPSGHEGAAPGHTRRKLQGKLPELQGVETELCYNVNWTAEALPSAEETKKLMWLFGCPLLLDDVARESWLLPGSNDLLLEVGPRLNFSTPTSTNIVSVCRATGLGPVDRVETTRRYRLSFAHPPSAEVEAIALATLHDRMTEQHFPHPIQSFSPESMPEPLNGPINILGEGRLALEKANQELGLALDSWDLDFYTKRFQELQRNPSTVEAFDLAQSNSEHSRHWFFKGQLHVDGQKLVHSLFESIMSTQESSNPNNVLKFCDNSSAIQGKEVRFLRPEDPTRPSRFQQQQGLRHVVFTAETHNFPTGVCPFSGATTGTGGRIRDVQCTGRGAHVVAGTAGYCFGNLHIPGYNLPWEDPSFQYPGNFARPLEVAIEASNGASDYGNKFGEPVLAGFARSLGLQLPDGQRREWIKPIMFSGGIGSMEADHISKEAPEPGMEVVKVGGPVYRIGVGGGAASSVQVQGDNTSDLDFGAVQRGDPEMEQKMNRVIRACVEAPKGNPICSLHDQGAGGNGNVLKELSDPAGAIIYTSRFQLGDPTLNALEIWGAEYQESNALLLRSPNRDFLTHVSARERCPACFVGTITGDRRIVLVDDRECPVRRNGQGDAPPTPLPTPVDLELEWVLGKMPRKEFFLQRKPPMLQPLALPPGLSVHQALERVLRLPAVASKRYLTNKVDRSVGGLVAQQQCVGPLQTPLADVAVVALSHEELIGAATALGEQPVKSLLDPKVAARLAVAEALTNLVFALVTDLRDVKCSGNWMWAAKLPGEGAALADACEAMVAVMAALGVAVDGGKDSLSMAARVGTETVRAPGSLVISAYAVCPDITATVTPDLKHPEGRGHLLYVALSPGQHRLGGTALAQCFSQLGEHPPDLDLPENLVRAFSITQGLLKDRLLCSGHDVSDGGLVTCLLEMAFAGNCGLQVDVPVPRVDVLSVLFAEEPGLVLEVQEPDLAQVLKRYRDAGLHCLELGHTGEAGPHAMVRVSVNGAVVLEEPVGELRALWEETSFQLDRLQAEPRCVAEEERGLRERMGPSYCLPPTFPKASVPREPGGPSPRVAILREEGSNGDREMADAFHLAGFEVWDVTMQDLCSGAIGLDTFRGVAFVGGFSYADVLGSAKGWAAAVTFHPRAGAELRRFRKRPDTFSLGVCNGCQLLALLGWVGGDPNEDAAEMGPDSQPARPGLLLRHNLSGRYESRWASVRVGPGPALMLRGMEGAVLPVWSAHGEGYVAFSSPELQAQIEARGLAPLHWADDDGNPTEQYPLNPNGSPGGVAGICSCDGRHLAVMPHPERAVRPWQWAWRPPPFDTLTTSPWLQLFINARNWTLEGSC
UniProt A6NDG6: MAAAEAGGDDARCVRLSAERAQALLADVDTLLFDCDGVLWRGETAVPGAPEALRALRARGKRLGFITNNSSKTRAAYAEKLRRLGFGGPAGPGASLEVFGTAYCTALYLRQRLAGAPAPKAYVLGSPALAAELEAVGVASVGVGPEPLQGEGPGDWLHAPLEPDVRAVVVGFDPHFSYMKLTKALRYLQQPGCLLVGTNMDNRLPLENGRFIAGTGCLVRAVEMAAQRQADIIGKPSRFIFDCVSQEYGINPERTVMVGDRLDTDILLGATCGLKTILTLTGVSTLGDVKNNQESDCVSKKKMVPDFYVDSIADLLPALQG
UniProt Q99471, whole entry: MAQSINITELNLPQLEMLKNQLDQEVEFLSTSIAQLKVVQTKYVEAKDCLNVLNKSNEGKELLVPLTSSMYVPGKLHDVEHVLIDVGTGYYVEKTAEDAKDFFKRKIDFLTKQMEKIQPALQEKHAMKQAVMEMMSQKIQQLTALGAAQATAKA
UniProt Q8NDX5: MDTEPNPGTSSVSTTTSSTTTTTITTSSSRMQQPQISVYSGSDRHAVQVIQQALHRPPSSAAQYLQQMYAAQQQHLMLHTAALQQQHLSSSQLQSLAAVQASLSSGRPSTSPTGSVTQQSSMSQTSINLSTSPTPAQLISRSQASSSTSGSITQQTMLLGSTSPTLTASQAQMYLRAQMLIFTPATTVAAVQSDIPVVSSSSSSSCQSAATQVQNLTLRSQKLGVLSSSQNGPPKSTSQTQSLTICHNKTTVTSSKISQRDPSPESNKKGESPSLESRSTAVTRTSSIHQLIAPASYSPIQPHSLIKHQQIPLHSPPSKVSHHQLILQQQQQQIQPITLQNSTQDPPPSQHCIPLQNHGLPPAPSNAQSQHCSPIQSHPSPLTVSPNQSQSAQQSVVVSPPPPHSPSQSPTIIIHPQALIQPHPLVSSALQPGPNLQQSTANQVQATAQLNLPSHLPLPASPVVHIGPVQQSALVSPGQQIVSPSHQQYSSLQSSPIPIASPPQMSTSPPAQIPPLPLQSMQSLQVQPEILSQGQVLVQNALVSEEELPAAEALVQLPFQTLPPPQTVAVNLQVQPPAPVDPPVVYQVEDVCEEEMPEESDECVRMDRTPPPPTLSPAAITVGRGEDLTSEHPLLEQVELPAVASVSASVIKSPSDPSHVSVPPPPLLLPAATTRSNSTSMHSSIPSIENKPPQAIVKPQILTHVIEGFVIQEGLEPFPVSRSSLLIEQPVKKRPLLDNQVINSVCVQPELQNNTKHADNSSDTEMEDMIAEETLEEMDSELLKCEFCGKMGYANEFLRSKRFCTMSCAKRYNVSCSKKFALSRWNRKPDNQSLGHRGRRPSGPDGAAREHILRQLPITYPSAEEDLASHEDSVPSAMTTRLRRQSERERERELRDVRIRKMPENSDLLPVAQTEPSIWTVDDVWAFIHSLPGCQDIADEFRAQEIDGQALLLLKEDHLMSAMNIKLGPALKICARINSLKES

Compound: CC1Cc2ccccc2N1C(=O)C1CCCN(C1)C(=O)CCl (mixture of isomers) [TRIM25 ligand 11 (diastereomer mixture)]
Test: probe-labelled cysteine peptide fold change vs DMSO (competition) (log2 fold change); higher = less target engagement (more negative = stronger competition)
Details: THP-1, incubation time: 4 h
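Note: competitive chemoproteomic profiling in live THP-1 cells with an iodoacetamide desthiobiotin (IA-DTB) probe, comparing probe-labelled peptide intensities in compound-treated cells against DMSO-treated controls.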

Target | probe-labelled cysteine peptide fold change (10 µM) | probe-labelled cysteine peptide fold change (50 µM)
PGAM5_Q96HS1_168_HLPGVCK (UniProt Q96HS1) | -0.0611 | -0.0945
PI4KA_P42356_58_LLCMCPVDFHGIFQLDER (UniProt P42356) | -0.0539 | -0.0902
PHF3_Q92576_627_QCHKPQQQAPAMK (UniProt Q92576) | -0.157 | -0.344
PHYKPL_Q8IUZ5_416_FKPPMCFSLDNAR (UniProt Q8IUZ5) | -0.13 | 0.0571
PGD_P52209_402_SAVENCQDSWR (UniProt P52209) | 0.0858 | 0.122
PHPT1_Q9NRX4_69_QGCDCECLGGGR (UniProt Q9NRX4) | -0.148 | -0.039
PI4KA_P42356_1215_DCDPQLLHHLCWGPLR (UniProt P42356) | 0.121 | 0.294
PHGDH_O43175_281_ALVDHENVISCPHLGASTK (UniProt O43175) | 0.0302 | -0.103
PFKFB3_Q16875_178_DCNSAEAMDDFMK (UniProt Q16875) | -0.0401 | -0.0121
PFAS_O15067_606_IVLVDDRECPVR (UniProt O15067) | 0.275 | 0.151
PGP_A6NDG6_193_YLQQPGCLLVGTNMDNRLPLENGR (UniProt A6NDG6) | -0.361 | -0.113
PEX3_P56589_337_IIPIVNGQIHSVCSETPSHFVQDLLTMEQVK (UniProt P56589) | 0.0747 | -0.187
PFDN5_Q99471_49_DCLNVLNK (UniProt Q99471) | -0.223 | -0.253
PHC3_Q8NDX5_808_FCTMSCAK (UniProt Q8NDX5) | -0.0422 | -0.0471
PHF5A_Q7RTV0_33_CVICDSYVRPCTLVR (UniProt Q7RTV0) | -0.0145 | -0.0268

Two neighbouring entries already listed, quoted:
Target | probe-labelled cysteine peptide fold change (10 µM) | probe-labelled cysteine peptide fold change (50 µM)
PFKFB3_Q16875_178_DCNSAEAMDDFMK (UniProt Q16875) | -0.0401 | -0.0121
PFAS_O15067_606_IVLVDDRECPVR (UniProt O15067) | 0.275 | 0.151
